# Primary screen of a compound library

The chains behind the UniProt entries cited, without tags or fusion partners. Residues count along the entry.
UniProt A4I591, 1-473: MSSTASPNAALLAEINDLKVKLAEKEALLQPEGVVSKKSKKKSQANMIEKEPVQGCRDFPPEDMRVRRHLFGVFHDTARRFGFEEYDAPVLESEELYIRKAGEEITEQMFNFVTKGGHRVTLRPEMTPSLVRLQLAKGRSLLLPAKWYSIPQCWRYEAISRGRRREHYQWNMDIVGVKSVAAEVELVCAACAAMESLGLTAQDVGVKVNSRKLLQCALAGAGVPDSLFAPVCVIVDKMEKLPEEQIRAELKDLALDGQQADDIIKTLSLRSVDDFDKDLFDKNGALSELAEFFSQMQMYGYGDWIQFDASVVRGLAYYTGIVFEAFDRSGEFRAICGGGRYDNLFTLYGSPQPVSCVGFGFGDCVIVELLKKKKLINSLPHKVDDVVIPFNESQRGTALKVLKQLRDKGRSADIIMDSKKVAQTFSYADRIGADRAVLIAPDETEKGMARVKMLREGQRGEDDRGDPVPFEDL
UniProt I6X8D2, whole entry: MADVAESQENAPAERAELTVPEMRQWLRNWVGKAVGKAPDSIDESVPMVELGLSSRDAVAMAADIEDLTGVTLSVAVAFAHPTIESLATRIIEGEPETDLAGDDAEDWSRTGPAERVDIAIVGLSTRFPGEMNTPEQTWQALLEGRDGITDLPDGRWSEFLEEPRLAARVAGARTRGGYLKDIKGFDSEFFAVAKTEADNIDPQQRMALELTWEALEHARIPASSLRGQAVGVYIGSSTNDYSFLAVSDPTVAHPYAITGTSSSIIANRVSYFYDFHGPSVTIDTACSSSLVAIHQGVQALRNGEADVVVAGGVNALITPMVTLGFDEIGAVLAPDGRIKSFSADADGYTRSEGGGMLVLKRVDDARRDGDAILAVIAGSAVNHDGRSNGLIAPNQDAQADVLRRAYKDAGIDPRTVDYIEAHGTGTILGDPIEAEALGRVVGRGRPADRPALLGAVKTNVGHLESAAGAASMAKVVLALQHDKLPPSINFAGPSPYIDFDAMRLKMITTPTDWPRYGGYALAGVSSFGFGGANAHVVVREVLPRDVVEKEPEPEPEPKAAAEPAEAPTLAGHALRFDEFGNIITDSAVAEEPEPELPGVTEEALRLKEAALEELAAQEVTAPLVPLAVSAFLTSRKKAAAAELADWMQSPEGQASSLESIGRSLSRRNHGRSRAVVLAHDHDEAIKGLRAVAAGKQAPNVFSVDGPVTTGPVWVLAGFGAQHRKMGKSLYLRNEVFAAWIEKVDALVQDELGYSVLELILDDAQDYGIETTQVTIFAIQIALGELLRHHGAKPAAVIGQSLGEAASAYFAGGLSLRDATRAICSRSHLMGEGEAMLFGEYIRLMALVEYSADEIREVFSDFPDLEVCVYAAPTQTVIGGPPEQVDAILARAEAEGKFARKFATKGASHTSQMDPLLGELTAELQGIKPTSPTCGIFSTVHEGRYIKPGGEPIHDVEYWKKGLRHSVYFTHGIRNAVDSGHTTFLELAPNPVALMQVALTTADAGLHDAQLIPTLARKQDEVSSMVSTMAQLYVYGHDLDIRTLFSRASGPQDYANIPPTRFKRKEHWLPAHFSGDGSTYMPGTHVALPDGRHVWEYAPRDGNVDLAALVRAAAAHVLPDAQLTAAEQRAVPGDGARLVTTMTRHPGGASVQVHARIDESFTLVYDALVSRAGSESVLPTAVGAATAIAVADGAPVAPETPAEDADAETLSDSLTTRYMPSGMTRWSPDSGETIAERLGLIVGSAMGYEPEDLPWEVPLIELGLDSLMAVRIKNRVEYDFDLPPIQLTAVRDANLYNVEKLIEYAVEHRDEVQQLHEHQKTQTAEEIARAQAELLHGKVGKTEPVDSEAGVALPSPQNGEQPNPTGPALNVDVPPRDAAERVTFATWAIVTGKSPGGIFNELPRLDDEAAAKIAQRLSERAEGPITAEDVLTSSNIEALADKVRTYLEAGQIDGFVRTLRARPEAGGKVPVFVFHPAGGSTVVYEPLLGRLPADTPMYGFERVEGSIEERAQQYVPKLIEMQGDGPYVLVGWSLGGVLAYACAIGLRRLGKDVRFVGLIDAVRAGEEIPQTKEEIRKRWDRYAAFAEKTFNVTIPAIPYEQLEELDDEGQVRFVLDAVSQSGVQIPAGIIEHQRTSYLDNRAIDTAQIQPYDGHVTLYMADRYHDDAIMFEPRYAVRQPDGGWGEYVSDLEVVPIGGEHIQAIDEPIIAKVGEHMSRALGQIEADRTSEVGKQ

From ChEMBL document CHEMBL3988442, “University of Dundee, Small-Polar-MMV Screening Library” (2021).

LiHisRS: 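Enzyme assay of histidyl-tRNA synthetase; the read-out is not stated. Target: Histidine-tRNA ligase, Leishmania infantum (UniProt A4I591). Tested at 30 µM. Higher reads as stronger inhibition (inferred: compounds with an IC50 in retests scored well above the rest). The assay is labelled LdHisRS but filed under L. infantum. Size under these conditions: about 69,000 compounds, about 410 of them at 50% or above in at least one test.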
Pks13 thioesterase: 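Enzyme assay of the thioesterase domain of polyketide synthase 13; the read-out is not stated. Target: Polyketide synthase Pks13, Mycobacterium tuberculosis (UniProt I6X8D2). Tested at 30 µM. Higher reads as stronger inhibition (inferred from which compounds were picked for retests). Of about 67,000 compounds tested this way, about 300 (0.46%) reached 50% or more in at least one test.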
Leishmania in macrophages: 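Cell assay of Leishmania donovani living inside macrophages; the read-out is not stated. Concentration: 30 µM. Direction is inferred from retests: higher values go with stronger inhibition. Size under these conditions: about 69,000 compounds, about 1,000 of them at 50% or above in at least one test.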

Values are the deposited “Percent Effect”, in %. The controls that fix the scale are not given in the record; negative values are as filed. This is an unselected part of the compounds tested. Two or more numbers in one place are separate tests of the same structure; such repeats can differ widely.

O=C(NCCO)Nc1c(F)cccc1Oc1ccccc1 gave LiHisRS: 13.33%; Pks13 thioesterase: -8.777%; Leishmania in macrophages: 12.59%. With CCc1noc(CN2CCOC3(CCCC3)C2)n1 the screen gave LiHisRS: 12.24%; Pks13 thioesterase: -1.759%; Leishmania in macrophages: 32.34%. CCC[C@@H]1CN(C(=O)c2ccccc2-c2ccccc2)C[C@H]1N(C)C read LiHisRS: 8.571%; Pks13 thioesterase: 37.52%; Leishmania in macrophages: 4.929%. Result for CC(C)(C)C(O)CN1CCN(CCOCC(F)(F)F)CC1 (stereo unspecified) was LiHisRS: 10.2%; Pks13 thioesterase: -21.94%; Leishmania in macrophages: 9.073%. c1cc(-c2nc(C3CCN(Cc4ccsc4)CC3)no2)ccn1 read LiHisRS: 5.263%; Pks13 thioesterase: -17.52%; Leishmania in macrophages: 10.05% & -12.45%. CC(=O)c1cccc(NC(=O)NCCOCC2CC2)c1 gave LiHisRS: 25.44%; Pks13 thioesterase: -3.398%; Leishmania in macrophages: 20.79%. O=C(NCC1CCS(=O)(=O)C1)N(Cc1ccncc1)C1CC1 (stereo unspecified) gave LiHisRS: 25.33%; Leishmania in macrophages: 8.54%.

For C1CC(CN2CCc3c(nnn3CC3CC3)C2COCC2CC2)C1 (stereo unspecified) the result was LiHisRS: 10.91%; Pks13 thioesterase: -9.339%. Result for CC(=O)N1Cc2nccn2CC(CNC(=O)c2cnccn2)C1 (stereo unspecified) was LiHisRS: 3.419%; Pks13 thioesterase: -7.556%; Leishmania in macrophages: 16.93%. Result for Cc1ccc(N2CCCN(C(=O)CC3C=CCC3)CC2)nn1 (stereo unspecified) was LiHisRS: 12.5%; Pks13 thioesterase: 6.476%; Leishmania in macrophages: 6.088%. CC(C)N(C)Cc1cnc2n1CCN(Cc1cccc(F)c1)C2.O=C(O)C(F)(F)F.O=C(O)C(F)(F)F gave Leishmania in macrophages: 5.364%. CN(C1CCc2ccccc2C1)S(C)(=O)=O (stereo unspecified) gave LiHisRS: 10.45%; Pks13 thioesterase: -19.51%; Leishmania in macrophages: -8.567%. For N#Cc1cccc(N2CCC(CO)(CCc3ccccc3)CC2)n1 the result was LiHisRS: -4.444%; Leishmania in macrophages: 10.94%. Result for CC(C)C1CCN(C(=O)NCC(=O)N(C)CC(F)(F)F)CC1 was LiHisRS: -7.143%; Pks13 thioesterase: -18.5%; Leishmania in macrophages: 2.862%.

For O=C(CCCOc1cccc(F)c1)N1CCCC(n2cncn2)C1 (stereo unspecified) the result was LiHisRS: 15.38%; Pks13 thioesterase: -3.969%; Leishmania in macrophages: 11.56%. For COCCC(=O)N1CCN(CC(C)C)c2nc(C)ccc2C1.O=C(O)C(F)(F)F the result was Leishmania in macrophages: 8.451%. Result for CC1CCN(S(=O)(=O)c2cccn(CC(=O)NC3CCCC3)c2=O)CC1 was LiHisRS: 23.08%; Pks13 thioesterase: 3.174%; Leishmania in macrophages: 35.69%. For COCCNC(=O)c1cc(S(=O)(=O)N2CCCC2)cs1 the result was LiHisRS: -8.333%; Pks13 thioesterase: -19.91%; Leishmania in macrophages: 7.27%. Cc1ccc(CNC2(Cc3cc(-c4ccccc4)on3)COC2)o1 read LiHisRS: 25.68%; Pks13 thioesterase: -19.5%; Leishmania in macrophages: 20.09%. For COc1ccc2c(c1)CC(C(=O)N(C)Cc1noc3c1CCCC3)CO2 (stereo unspecified) the result was LiHisRS: 10.83%; Leishmania in macrophages: -7.913%. CCOc1cc(C(=O)N2CCCC(n3cncn3)C2)ccc1C (stereo unspecified) gave LiHisRS: 0%; Pks13 thioesterase: -0.6495%; Leishmania in macrophages: 6.463%.

With O=C(Cc1ccccc1C(F)(F)F)N1CCC2(CC1)OCCCC2O (stereo unspecified) the screen gave LiHisRS: 7.692%; Pks13 thioesterase: -0.3849%; Leishmania in macrophages: 12.15%. For O=C(N1CCOCC1)N1CCC2(CC1)CN(c1ccccn1)CCO2 the result was LiHisRS: 13.76%; Pks13 thioesterase: -10.04%; Leishmania in macrophages: -1.261%. For Cc1ccc(CN2Cc3nnn(C)c3C(COCc3ccccc3)C2)s1 (stereo unspecified) the result was LiHisRS: 22.22%; Pks13 thioesterase: -13.26%.